Measured values reported in the supplement of paper PMC3741180, “A Novel High Throughput Biochemical Assay to Evaluate the HuR Protein-RNA Complex Formation” (PLoS ONE, 2013).
The other results are listed elsewhere or left out. Most values lie within the scatter of the assay; repeated measurements hardly agree.

By UniProt entry, the sequences of proteins in these tests, tags left out.
UniProt Q15717, whole entry: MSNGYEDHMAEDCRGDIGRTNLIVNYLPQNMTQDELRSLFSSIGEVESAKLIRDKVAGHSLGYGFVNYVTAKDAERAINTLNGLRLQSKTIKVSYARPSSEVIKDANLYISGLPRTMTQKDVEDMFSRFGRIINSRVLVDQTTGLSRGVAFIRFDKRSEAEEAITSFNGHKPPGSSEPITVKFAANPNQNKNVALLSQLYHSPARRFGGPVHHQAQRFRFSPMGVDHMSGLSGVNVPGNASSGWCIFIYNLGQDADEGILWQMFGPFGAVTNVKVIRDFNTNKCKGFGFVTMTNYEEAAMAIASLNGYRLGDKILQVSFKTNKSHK

target: HuR (ELAVL1) - TNFalpha ARE RNA complex (UniProt Q15717); test: AlphaScreen HuR-RNA complex signal Z-score relative to positive (Bi-TNF, DMSO) controls (Z-score (SD units of positive control)); higher = more complex signal; conditions: screen stage: primary screen; compound concentration: 25 nM

| SMILES | AlphaScreen HuR-RNA complex signal Z-score |
| --- | --- |
| Oc1c(Cl)cc(Cl)cc1Sc1cc(Cl)cc(Cl)c1O | 0.312 |
| CC(=O)OC(C)C[N+](C)(C)C (stereo not given) | 0.387 |
| CCCCOc1ccc(CC(=O)NO)cc1 | 2.77 |
| CCCCC[C@H](CC(=O)NO)C(=O)N[C@H](C(=O)N1CCC[C@H]1CO)C(C)C | 2.75 |
| Cc1ccc(O)c([C@H](CCN(C(C)C)C(C)C)c2ccccc2)c1 | 0.37 |
| Nc1nc(=O)c2c([nH]1)NCC(CNc1ccc(C(=O)N[C@@H](CCC(=O)O)C(=O)O)cc1)N2C=O (stereo not given in full) | 1.55 |
| O=C(O)c1cc(=O)c2c(OCC(O)COc3cccc4oc(C(=O)O)cc(=O)c34)cccc2o1 | -5.05 |
| O=C(O)/C=C/C=C/c1ccc2c(c1)OCO2 | -0.361 |
| CCCCCC1C(=O)CCC1CC(=O)O (stereo not given) | 0.963 |
| CC(C)CCC[C@@H](C)[C@H]1CC[C@H]2[C@@H]3CC=C4C[C@@H](O)CC[C@]4(C)[C@H]3CC[C@]12C | -0.228 |
| Nc1ccn([C@@H]2O[C@H](CO)[C@@H](O)[C@H]2O)c(=O)n1 | 0.765 |
| CN(C)CCC(c1ccccc1)c1ccccn1 (stereo not given) | 2.09 |
| C=CC(C1=CC(=O)C(OC)=CC1=O)c1ccc(O)cc1 (stereo not given) | -4.91 |
| O=P(O)(O)C(O)(Cc1cccnc1)P(=O)(O)O | 0.582 |
| O=C(O)c1cc(O)c(O)c(O)c1 | 0.212 |
| CCN(CC)C(=O)N1CCN(C)CC1 | -2.9 |
| CC[C@]1(O)C[C@@H]2CN(CCc3c([nH]c4ccccc34)[C@@](C(=O)OC)(c3cc4c(cc3OC)N(C)[C@H]3[C@@](O)(C(=O)OC)[C@H](OC(C)=O)[C@]5(CC)C=CCN6CC[C@]43[C@@H]65)C2)C1 | -1.46 |
| C[C@H]1CC[C@@H](C(C)(C)O)CC2=C1CC[C@@H]2C | 1.08 |
| CCN(CCCc1ccccc1)CCCc1ccccc1 | 0.315 |
| CCCCC(CC)COC(=O)c1ccccc1O (stereo not given) | 0.584 |
| CC(=O)[C@H]1CC[C@H]2[C@@H]3CC=C4C[C@@H](OC(=O)CCC(=O)O)CC[C@]4(C)[C@H]3CC[C@]12C | -0.429 |
| Clc1ccc(COC(Cn2ccnc2)c2ccc(Cl)cc2Cl)cc1 (stereo not given) | 1.34 |

| SMILES | AlphaScreen HuR-RNA complex signal Z-score |
| --- | --- |
| Clc1ccccc1C(c1ccccc1)(c1ccccc1)n1ccnc1 | -6.14 |
| NC(=O)NO | -1.19 |
| CO/N=C1\CN(c2nc3c(cc2F)c(=O)c(C(=O)O)cn3C2CC2)CC1CN (stereo not given) | 1.78 |
| CC(C)=CCC/C(C)=C/COc1ccc2ccc(=O)oc2c1 | 1.53 |
| COc1c(OC)c2occc2c2oc(=O)ccc12 | 0.639 |
| CN1CCC[C@H]1c1cccnc1 | 5.66 |
| CCCC(C(=O)OCCN(CC)CC)(c1ccccc1)c1ccccc1 | 0.765 |
| C[C@@H]1CC2C3C[C@H](F)C4=CC(=O)C=C[C@]4(C)[C@@]3(F)[C@@H](O)C[C@]2(C)[C@@]1(O)C(=O)COC(=O)C(C)(C)C (stereo not given in full) | -2.68 |
| Cn1c(=O)c2c(ncn2CC(O)CO)n(C)c1=O (stereo not given) | -2.5 |
| NC(=O)c1cccnc1 | 0.477 |
| CNC1(C)C2CCC(C2)C1(C)C (stereo not given) | 0.767 |
| NC(=O)C1(N2CCCCC2)CCN(CCCC(=O)c2ccc(F)cc2)CC1 | -2.96 |
| CCCCCCCCCCCCCCCC[N+](C)(C)C | 1.68 |
| CC1=C(C(=O)O)N2C(=O)[C@@H](NC(=O)[C@H](N)c3ccc(O)cc3)[C@H]2SC1 | -1.9 |
| OC[C@H]1O[C@@H](O[C@H]2[C@H](O)[C@@H](O)[C@@H](O)O[C@@H]2CO)[C@H](O)[C@@H](O)[C@@H]1O | 0.0804 |
| CC1=CCCC(C)=CCC(C)(C)C=CC1 [HUMULENE (alpha)] | 2.55 |
| COc1cc(C)c2c(=O)cc(-c3ccccc3)oc2c1 | 2.44 |
| CCOc1nc2cccc(C(=O)OC(C)OC(=O)OC3CCCCC3)c2n1Cc1ccc(-c2ccccc2-c2nn[nH]n2)cc1 (stereo not given) | -7.87 |
| Nc1ccc(S(N)(=O)=O)cc1 | -0.558 |
| Nc1ncnc2c1ncn2[C@H]1C[C@H](O)[C@@H](CO)O1 | 0.571 |
| O=C(O)/C=C/c1ccccc1 | 1.17 |
| COc1ccc([C@H]2Oc3cc(OC)cc(OC)c3C[C@H]2O)cc1 | 2.77 |

| SMILES | AlphaScreen HuR-RNA complex signal Z-score |
| --- | --- |
| CC[C@]12CCCN3CCc4c(n(c5ccccc45)[C@@](O)(C(=O)OC)C1)[C@@H]32 | 0.89 |
| COc1ccc2c(c1)OCC(Cc1ccc(OC)c(OC)c1)C2=O (stereo not given) | 2.39 |
| Cc1cc(O)cc(=O)o1 | 1.14 |
| S=P(N1CC1)(N1CC1)N1CC1 | 0.241 |
| CC(C)[C@@H]1CC[C@@H](C)C[C@H]1OC(=O)c1ccccc1 | 2.89 |
| CC(=O)O[C@H]1CC[C@]2(C)[C@H]3CC=C4[C@@H]5CC(C)(C)CC[C@]5(C(=O)O)CC[C@@]4(C)[C@]3(C)CC[C@H]2C1(C)C | 1.75 |
| CC1CCc2cc(F)cc3c(=O)c(C(=O)O)cn1c23 (stereo not given) | 0.732 |
| COc1cc2c(cc1OC)-c1c(oc3cc(O)cc(O)c3c1=O)CO2 | 2.99 |
| CCCCOc1ccc(OCCCN2CCOCC2)cc1 | 0.775 |
| COC(=O)/C(=C1/OC(=O)C(c2ccccc2)=C1O)c1ccccc1 | 1.16 |
| COc1c(O)cc2c(c1O)[C@@H]1O[C@H](CO)[C@@H](O)[C@H](O)[C@H]1OC2=O | 0.341 |
| COC(=O)[C@@H]1OC(=O)C2OC23[C@@]1(C)CCC1[C@]2(C)C(C[C@@H](O)[C@]13C)C(C)(C)[C@H](OC(C)=O)C[C@@H]2OC(C)=O (stereo not given in full) | 1.56 |
| COc1ccc(C(C)=O)c(O)c1 | 0.0253 |
| COc1cc(-c2coc3cc(OCc4ccccc4)c(OC)c(O)c3c2=O)cc(O)c1OC | 1.33 |
| CC(C)=CCc1c(O)cc2occ(-c3ccc4c(c3)OCO4)c(=O)c2c1O | 1.19 |
| CCn1cc(C(=O)O)c(=O)c2cc(F)c(N3CCNCC3)cc21 | 1.91 |
| O=c1c(O)c(-c2ccc(O)c(O)c2)oc2c(O[C@@H]3O[C@H](CO)[C@@H](O)[C@H](O)[C@H]3O)c(O)cc(O)c12 | 1.4 |
| CC(=O)O[C@H]1C[C@@H](OC(C)=O)C(C)(C)C2CC(=O)[C@]3(C)C(CC[C@@]4(C)[C@H](C(=O)O)OC(=O)C5OC543)[C@]21C (stereo not given in full) | 2.14 |
| CCCCCCCCCCCCCCCCC(C(=O)O)C(O)(CC(=O)O)C(=O)O (stereo not given) | 0.677 |
| CCOC(=O)C1=C(C)NC(C)=C(C(=O)OC)C1c1cccc([N+](=O)[O-])c1 (stereo not given) | 0.418 |
| CC1(C)S[C@@H]2[C@H](N3C(=O)[C@@H](c4ccccc4)NC3(C)C)C(=O)N2[C@H]1C(=O)O | -2.04 |

Reformatted: results already given
SMILES	AlphaScreen HuR-RNA complex signal Z-score
COc1c(O)cc2c(c1O)[C@@H]1O[C@H](CO)[C@@H](O)[C@H](O)[C@H]1OC2=O	0.341
COC(=O)[C@@H]1OC(=O)C2OC23[C@@]1(C)CCC1[C@]2(C)C(C[C@@H](O)[C@]13C)C(C)(C)[C@H](OC(C)=O)C[C@@H]2OC(C)=O (stereo not given in full)	1.56
COc1ccc(C(C)=O)c(O)c1	0.0253
COc1cc(-c2coc3cc(OCc4ccccc4)c(OC)c(O)c3c2=O)cc(O)c1OC	1.33
